{
  "sequences": {"note": "Chains of the proteins cited; added tags and fusions are not shown.", "UniProt P35222": "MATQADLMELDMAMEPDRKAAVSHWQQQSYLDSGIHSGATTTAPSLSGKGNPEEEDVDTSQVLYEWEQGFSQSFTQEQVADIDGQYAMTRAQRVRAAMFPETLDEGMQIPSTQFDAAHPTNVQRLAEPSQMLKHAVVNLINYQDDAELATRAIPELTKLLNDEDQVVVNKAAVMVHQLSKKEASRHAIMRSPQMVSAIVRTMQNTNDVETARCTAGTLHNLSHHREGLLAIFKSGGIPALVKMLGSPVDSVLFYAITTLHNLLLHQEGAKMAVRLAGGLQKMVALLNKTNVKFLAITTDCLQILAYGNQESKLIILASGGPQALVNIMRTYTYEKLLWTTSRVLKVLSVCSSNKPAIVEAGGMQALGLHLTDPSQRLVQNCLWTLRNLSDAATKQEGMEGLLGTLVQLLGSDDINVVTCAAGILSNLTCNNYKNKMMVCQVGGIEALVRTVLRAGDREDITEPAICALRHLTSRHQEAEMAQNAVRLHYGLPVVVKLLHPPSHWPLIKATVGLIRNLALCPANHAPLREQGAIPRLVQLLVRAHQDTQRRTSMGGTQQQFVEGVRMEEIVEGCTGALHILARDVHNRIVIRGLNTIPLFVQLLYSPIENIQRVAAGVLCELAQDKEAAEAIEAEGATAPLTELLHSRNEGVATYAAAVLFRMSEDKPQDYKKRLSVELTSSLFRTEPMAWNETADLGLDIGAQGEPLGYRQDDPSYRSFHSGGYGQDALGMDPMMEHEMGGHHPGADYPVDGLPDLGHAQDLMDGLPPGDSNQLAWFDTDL", "UniProt P63104": "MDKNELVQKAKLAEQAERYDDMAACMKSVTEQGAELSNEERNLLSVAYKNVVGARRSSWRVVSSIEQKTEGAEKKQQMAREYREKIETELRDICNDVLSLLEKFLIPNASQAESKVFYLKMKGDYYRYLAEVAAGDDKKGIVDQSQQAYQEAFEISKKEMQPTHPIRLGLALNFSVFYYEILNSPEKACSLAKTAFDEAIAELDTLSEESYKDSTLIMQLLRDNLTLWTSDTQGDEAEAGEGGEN"},
  "source": "paper PMC8120461",
  "target": "β-catenin (human (endogenous in GC cells)) (UniProt P35222)",
  "assay": "co-IP; IP/Co-IP kit (ABsin, #abs955); endogenous proteins in GC cells; antibodies against β-catenin and YWHAZ; which protein was precipitated is not told",
  "note": "Results are given in words; binding and its absence hold for the method and conditions named. Binding seen in cells or lysates may run through a third protein. Some results given as binding are weak or reduced against the parent protein; the word gives no strength.",
  "data": [
    {"substance": "YWHAZ protein (tyrosine 3-monooxygenase/tryptophan 5-monooxygenase activation protein zeta, 14-3-3ζ) (from UniProt P63104 1-245)", "values": [
      {"measurement": "binding", "value": "binds"}
    ]}
  ]
}
